# PubChem BioAssay AID540256 (National Center for Advancing Translational Sciences (NCATS), 2011)
# In all, about 300,000 compounds went through this assay and about 3,700 (1.2%) were called active. This list was built around the results that the source calls inconclusive (neither active nor inactive); the mix of calls is not that of the screen. Calls follow the shape of the full dose curve; tested in HEK293 cells. Potencies of inconclusive entries are doubtful fits and often do not repeat.
# Assay: qHTS for Inhibitors of binding or entry into cells for Lassa Virus; also: nearly all actives have a fitted effect of over 50% in size
# Details: Lassa virus pseudotype entry inhibition, cell reporter; series mostly up to 37.9 µM
# Potency is read from the fitted curve at half-maximal effect.
row,SMILES,Potency
1,O=C(COC(=O)C1=COCCO1)Nc1ccc(Oc2ccccc2)cc1,"inconclusive: 0.411 µM [activator, partial curve, poor fit]"
2,Cc1ccc(-n2c(SCc3ccccc3C)nc3[nH]ncc3c2=O)cc1C,"inconclusive: 35.5 µM [inhibitor, single point]"
3,CCOC(=O)C1(CC2CC2)CCN(Cc2ccc(OC)cc2F)CC1,"inconclusive: 3.55 µM [inhibitor, partial curve, poor fit]"
4,CSCC[C@H](NC(=O)N1CCn2c1nc1ccccc12)C(=O)NC1CCCCC1,"inconclusive: 8.91 µM [inhibitor, partial curve, poor fit]"
5,COC(=O)Cn1cc(/C=C/[N+](=O)[O-])c2ccccc21,"inconclusive: 35.5 µM [inhibitor, single point]"
6,O=c1cc(CN2CCN(C/C=C/c3ccccc3)CC2)c2cc(O)ccc2o1,"inconclusive: 14.6 µM [inhibitor, partial curve, poor fit]"
7,Cc1[nH]n(-c2ccccc2)c(=O)c1/C=N/N(C)c1ccccc1,inactive
8,OC(CNc1ccccc1)COc1ccc(OCC(O)CNc2ccccc2)cc1 (centres undefined),"inconclusive: 35.5 µM [inhibitor, single point]"
9,Cc1cc(C(=O)NNC(=O)CCCOc2ccccc2)c(C)o1,inactive
10,N#Cc1ccccc1CSc1nnc(-c2ccncc2)o1,"inconclusive: 35.5 µM [inhibitor, single point]"
11,CCC(C)(C)NC(=S)Nc1ccc(-c2nc3ccc(C)cc3s2)cc1,"inconclusive: 28.2 µM [inhibitor, single point]"
12,COc1cccc(-n2nnc3c(=O)n(Cc4ccccc4F)cnc32)c1,"inconclusive: 4.61 µM [inhibitor, full curve]"
13,COc1cc(/C=C(\C#N)c2ccccn2)ccc1OCC(=O)Nc1c(Cl)cccc1Cl,"inconclusive: 1.16 µM [inhibitor, full curve]"
14,CCOC(=O)c1[nH]c(=O)[nH]c1CNc1ccccc1C#N,"inconclusive: 14.1 µM [inhibitor, single point]"
15,COc1ccc(-c2cc(CNC(=O)CCl)on2)cc1,"inconclusive: 35.5 µM [inhibitor, single point]"
16,Cc1cc(C)c2nc(NNC(=O)c3ccc(S(=O)(=O)N4CCc5ccccc5C4)cc3)sc2c1,active: 16.4 µM
17,O=C1S/C(=C\c2ccc(N3CCOCC3)o2)C(=O)N1Cc1c(F)cccc1Cl,inactive
18,CN(CC(=O)Nc1ccc(F)cc1)C(=O)c1cc(-c2ccco2)nc2ccccc12,"inconclusive: 1.12 µM [inhibitor, full curve]"
19,CCN(CC)S(=O)(=O)c1ccc(C(=O)O)cc1,inactive
20,COC(=O)c1cc2oc(C)cc2n1Cc1ccc(C)cc1,inactive
21,N#C/C(=C/c1ccc(N2CCCCCC2)o1)c1ccc(F)cc1,"inconclusive: 10 µM [inhibitor, partial curve, poor fit]"
22,Cc1ccc2nc(SCC(=O)NC3CCCc4ccccc43)[nH]c2c1 (centres undefined),"inconclusive: 31.6 µM [inhibitor, single point]"
23,C=CCNC(=S)NNC(=O)c1ccc2c(c1)OCO2,inactive

# At a glance, two of the compounds above:
row,SMILES,Potency
18,CN(CC(=O)Nc1ccc(F)cc1)C(=O)c1cc(-c2ccco2)nc2ccccc12,"inconclusive: 1.12 µM [inhibitor, full curve]"
19,CCN(CC)S(=O)(=O)c1ccc(C(=O)O)cc1,inactive

# The list goes on.

row,SMILES,Potency
1,COc1cccc(-c2nc(N3CCN(C)CC3)c3ccccc3n2)c1O,"inconclusive: 35.5 µM [inhibitor, single point]"
2,O=C1CC(c2ccc(F)cc2)Cc2nc(N3CCOCC3)ncc21 (centres undefined),"inconclusive: 2 µM [inhibitor, partial curve, poor fit]"
3,CCS(=O)(=O)N1Cc2ccccc2CC1C(=O)N1CCN(c2cccc(C)c2C)CC1 (centres undefined),"inconclusive: 29.1 µM [inhibitor, single point]"
4,Cc1ccc(S(=O)(=O)N2CCN(C(=O)COC(=O)c3ccc(C(C)(C)C)cc3)CC2)c(C)c1,"inconclusive: 0.794 µM [inhibitor, single point]"
5,Cc1ccccc1CNC(=O)Nc1ccc(Cl)cc1,inactive
6,Cc1ccc2nc(-c3ccc(NC(=O)C4CCCO4)cc3)[nH]c2c1 (centres undefined),active: 8.2 µM
7,CCC(CC)C(=O)Nc1cc(C(=O)OC)ccc1C(=O)OC,inactive
8,CCC(=O)C1=C(c2ccc(F)cc2)N(C(=O)CC)n2c(nnc2C2CCCCC2)S1,inactive
9,Cc1ccc(N2C(N)=NC(N)=NC23CCCC3)c(C)c1,inactive
10,CC(C)c1ccc(NC(=O)CN2C=NS(=O)(=O)c3ccccc32)cc1,inactive
11,COc1cccc2cc(/C(C)=N/Nc3nc(-c4cc(C)ccc4C)cs3)c(=O)oc12,"inconclusive: 1.03 µM [inhibitor, single point]"
12,Cc1cc(C(F)F)n2nc(C(=O)Nc3sc4c(c3C(N)=O)CCC4)nc2n1,inactive
13,CCN(C(=O)c1ccncc1)c1c(N)n(Cc2ccccc2)c(=O)[nH]c1=O,"inconclusive: 11.2 µM [activator, partial curve, poor fit]"
14,O=C(NNC1=Nc2ccccc2SC1)c1ccccc1F,"inconclusive: 0.562 µM [inhibitor, full curve, poor fit]"
15,CCCC1=[N+](CC)CCn2c(C)ccc21,inactive
16,O=C(NCc1cccnc1)C1CCN(Cc2cc3ccccc3n2Cc2ccccc2)CC1,"inconclusive: 35.5 µM [inhibitor, single point]"
17,Nc1[nH]n(-c2ccccc2)c(=O)c1N=Nc1ccccc1[N+](=O)[O-],inactive
18,Cc1oc2c(c(=O)c1C)C(=O)CC(c1ccccc1)C2 (centres undefined),"inconclusive: 7.94 µM [inhibitor, partial curve]"
19,O=C(c1ccc(S(=O)(=O)N2CCCC2)cc1)N1CCN(Cc2ccc3c(c2)OCO3)CC1,inactive
20,COc1ccccc1OCCCn1c(C)c(C#N)c2ccccc21,"inconclusive: 14.6 µM [inhibitor, partial curve, poor fit]"
21,Cn1c(N)c(C(=O)COC(=O)C2(c3cccc(F)c3)CCCC2)c(=O)n(C)c1=O,"inconclusive: 1 µM [activator, full curve, poor fit]"
22,CCOC(=O)c1cc(OC(=O)c2cccc(F)c2)n(-c2ccccc2)n1,inactive
23,CC(C)c1ccc(-c2noc(SCC(=O)N(C)c3ccc(F)cc3)n2)cc1,"inconclusive: 35.5 µM [inhibitor, single point]"

# Exported with bars between the fields: entries from further up.
row | SMILES | Potency
3 | CCS(=O)(=O)N1Cc2ccccc2CC1C(=O)N1CCN(c2cccc(C)c2C)CC1 (centres undefined) | inconclusive: 29.1 µM [inhibitor, single point]
8 | CCC(=O)C1=C(c2ccc(F)cc2)N(C(=O)CC)n2c(nnc2C2CCCCC2)S1 | inactive

# The results go on:

row,SMILES,Potency
1,Cc1nn(CC(=O)Nc2ccc(N3CCOCC3)cc2)c(C)c1Cl,inactive
2,CN1C(=O)/C(=C/c2cccn2-c2ccc3ccccc3c2)C(=O)NC1=S,"inconclusive: 35.5 µM [inhibitor, single point]"
3,CCOc1cccc(C2/C(=C(\O)c3ccc4c(c3)OCCO4)C(=O)C(=O)N2Cc2ccncc2)c1 (centres undefined),inactive
4,Cc1ccccc1CS(=O)(=O)c1ncc(Cl)c(C(=O)Nc2nnc(C(C)C)s2)n1,"inconclusive: 8.91 µM [inhibitor, partial curve, poor fit]"
5,Oc1ccc(CNc2ccccc2O)cc1,"inconclusive: 5.17 µM [inhibitor, full curve]"
6,CCOc1ccc(CN(CC)C(=O)Cc2c[nH]c3ccccc23)cc1OC,"inconclusive: 31.6 µM [inhibitor, single point]"
7,CCc1ccc(CNC(=O)C2CCN(C(=O)c3ccc(-n4ccc5ccccc54)s3)CC2)cc1,"inconclusive: 1.78 µM [inhibitor, full curve, poor fit]"
9,Nc1c(C(=O)N/N=C/c2ccc(Cl)cc2)cnn1-c1ccccc1,"inconclusive: 8.91 µM [inhibitor, single point]"
10,O=C(Nc1ccccc1N1CCCCC1)C1CCN(S(=O)(=O)c2ccccc2C(F)(F)F)CC1,"inconclusive: 10 µM [inhibitor, partial curve]"
11,O=c1c2c3c(sc2n(CCN2CCCC2)c(=O)n1Cc1ccco1)CCCCC3,"inconclusive: 29.1 µM [inhibitor, single point]"
12,O=C(NNc1c2ccccc2nc2ccccc12)c1ccc(O)cc1O,inactive
13,CCc1nnc(NC(=O)CSc2nnc(C(C)NC(=O)c3ccccc3F)n2C)s1 (centres undefined),"inconclusive: 2 µM [inhibitor, partial curve]"
14,Cc1ccc(-c2cc(C(F)F)n3ncc(C(=O)Nc4c(C)nn(Cc5c(Cl)cccc5Cl)c4C)c3n2)cc1,"inconclusive: 2.59 µM [inhibitor, full curve]"
15,CC1CC(C)CN(c2ccc(-n3cnnn3)cc2[N+](=O)[O-])C1 (centres undefined),inactive
16,CN(C)c1ccc(/C=N/NC(=O)c2cc(-c3ccc4c(c3)OCO4)n[nH]2)cc1,"inconclusive: 3.98 µM [inhibitor, full curve]"
17,N#C/C(=C\c1c(Oc2ccc(F)cc2)nc2ccccn2c1=O)c1nc2ccccc2s1,"inconclusive: 7.08 µM [inhibitor, partial curve, poor fit]"
18,CCCN(CCC)CCCNC(=O)CNC(=O)c1nn(-c2ccc(OC)cc2)c(=O)c2ccccc12,"inconclusive: 0.447 µM [inhibitor, partial curve, poor fit]"
19,CCOC(=O)COc1ccc(/C=C2/SC(=Nc3ccccc3)N(Cc3cccnc3)C2=O)cc1OC,"inconclusive: 35.5 µM [inhibitor, single point]"
20,Cc1nc(N2CCN(C(=O)COc3ccccc3)CC2)c2c(C)c(C)sc2n1,"inconclusive: 29.1 µM [inhibitor, single point]"
21,Cc1nc2ccccc2c(=O)n1/N=C/c1ccncc1,inactive
22,CCOC(=O)N1CCN(Cc2nc3cc(NC(=O)c4ccc([N+](=O)[O-])cc4)ccc3n2C(C)C)CC1,inactive
23,O=C(Nc1cccc(S(=O)(=O)N2CCCCCC2)c1)c1ccc(Cl)nc1,"inconclusive: 10 µM [inhibitor, partial curve, poor fit]"
